Some results were stated once for a whole list of compounds, not compound by compound. At least one structure is not confirmed: it was looked up by name or label, or the drawing left a doubt.
System: HCT116 cells
Assay: FACS analysis of DNA content (sub-G1 apoptotic fraction)
Type: cell-based, Human
Conditions: ADR (1 μM) or LY2119301 (5 μM) alone, 24 h
Experimental: Cell culture and drug treatments: Human colon cancer cell line HCT116 and its derived isogenic p53^−/−, Puma^−/−, Bax^−/− and p53-inducible DLD cell lines were kindly provided by Dr. Bert Vogelstein (Johns Hopkins University, MD). RKO and RKO/E6 cells were from ATCC. Cells were cultured in DMEM containing 10% FBS. All culture reagents and media were from Invitrogen. 5-Fluorouracil, Adriamycin, etoposide and lithium chloride were purchased from Sigma. GSK-3β specific small molecule inhibitor LY2119301 was a gift from Eli Lilly (Indianapolis) and SB-216763, SB-415283 were obtained from BIOMOL.
FACS analysis of DNA content and caspase-3 activity: Cells were harvested and fixed in 70% ethanol. Fixed cells were stained with propidium iodide (50 μg/ml) after treatment with RNase (100 μg/ml). The stained cells were analyzed for DNA content by fluorescence-activated cell sorting (FACS) in a FACScalibur™ (Becton Dickinson Instrument, San Jose, Calif.). Cell cycle fractions were quantified using the CellQues™ software (Becton Dickinson). To measure caspase-3 activity, cells were fixed with Cytofix/Cytoperm™ solution (BD PharMingen) as instructed, and then stained with FITC-conjugated rabbit anti-active caspase-3 monoclonal antibody (BD PharMingen). Quantification of cells positive for the caspase-3 detection was performed by flow cytometry.

## CN1CCN(c2ccc(NCCNc3ccc([N+](=O)[O-])c(N)n3)nc2-c2ccc(Cl)cc2Cl)C(=O)C1 [LY2119301]
  cell death, sub-G1 population: 3-5%

From US20110293746A1, “Modulation of Gsk-3Beta and Method of Treating Proliferative Disorders” (Agency For Science, Technology and Research, priority 2004, published 2011)
